Publication PMC7793253, “CEP290 is essential for the initiation of ciliary transition zone assembly” (PLoS Biology, 2020)
Read-outs that look alike come from different tables or passages of the source. These are yes or no findings as the source states them, for the method shown. Where a sequence is shown, tags or fusion partners need not be part of it.

B1: His-CEP290-ΔN (aa 888–1978) (domain or fragment, UniProt Q9W0M1 888-1978)
chain: IHSQQRLLNEITDNHINLRHLVADLQSSSDEKLMLAKVQRDLDSVKAECSRLETEREKLQLKADCLQTQLEASELSLKQTQQDFQQERTNSDIKHKFLQHSLFMLKDKYAKFTPLVFLTNFVFAYQKFQRRLEEEQVQQRHRDHTALIDEVTAVVQAKIGLNEESSQQLVKLIKSETQTRLLEQRCEILQAKQEELVRELGELRMSQATDTEHWSTIQALFGEGEPRSQLKVDAETNTDAVAPNLAMRRAVQLIDRESSPIGSPLRKHPHLDTATQTLEAQVEFSETAVQTNGILSQQNQAVQTADAVEDNRRDSRAELQKMQETLQEANQRIEILGKQLEASRSESRESASPQGGVVEKTILSFHTLLLEKDQSIQKYQDLLQTERDQSQQALSKQVAENESLRATVNNLNFNIKTKDAEIQGLKEKLRQKPEVPVERNPSTDSRSSSSSDSSVNELTDEKIEELFESSSVERPPQEELEVPVEAGPENIVTEEPEGEEEKQDTEELKEVPTLHKQIKDLKDKLEYSERSLKTREEEVDILKEKLKLCQEREKSVESTVNPELDQLRIFLDEKDKHIKDLMDTLKNFHDDQQRYIKDTSNFSEDQIAKLAADLNRTEATNKIYHTQMEALRRQLANVTQREKQARDLSQSLRQQLLKRPVVSIKTELNARVKNENQLKRIQQLELDLDEARGQLQRQQTLLEAKRTRSANEVQLWEKQKRYQQQAEKTKARLEETELALEKTRALLQAARTTIARLEKDKQILESKLGRNGPPSNSSGGNNLKCCRTPSCPNLQHVGVSKFAPSPSESPETYTGPSSECSSPAHHHTQIFDQSQLDLIEALKSRIELQQRKIIAMELEGRGSNALTTELEKLQERCQAIEAQNIRLEARNLQLQLDSDLLRQGDSSDRLQKRIKHLEDYIMALKEEMARNESRRELGSGLKVSTNQGQSAEQTILSLRNLVEKLRSENKFLKDGRRSTESRSSMDSTPAEAARLQQQHAEALEKISALQQELQKRTTKCSQCGGRSKDAANEELKFIKEQLVKKTQLLQKAKVLLTRAAAKEKVLREQLALWKRKCSELQNVPVIDEISE
B2: His-Rab8 (natural protein, Drosophila, UniProt O18338 1-207, looked up)
chain: MAKTYDYLFKLLLIGDSGVGKTCILFRFSEDAFNTTFISTIGIDFKIRTIELDNKKIKLQIWDTAGQERFRTITTAYYRGAMGIMLVYDITQEKSFENIKNWIRNIEENASADVEKMLLGNKCELTDKRQVSKERGEQLAIEYGIKFMETSAKASINVEEAFLTLASDIKAKTEKRMEANNPPKGGHQLKPMDSRTKDSWLSRCSLL
notes: Drosophila Rab8; Cloned into pET28a; source: E. coli BL21 (DE3), purified (His resin)

Assays:
Test in all cases: pull-down; GST pull-down: purified His-tagged proteins incubated with GST, GST-DZIP1-N or GST-DZIP1-C in 25 mM Tris-HCl pH 7.4, 150 mM NaCl, 0.5% Triton X-100, 1 mM dithiothreitol, 10% glycerol, overnight at 4°C; blot with anti-His antibodies; both purified
GST-DZIP1-N (aa 1–293) = biological target: T1, GST-DZIP1-N (aa 1–293) (Drosophila, UniProt Q9VC70 1-293)
T1 construct: Cloned into pGEX-4T-1; also called N-terminus of DZIP1; source: E. coli BL21 (DE3), purified (Glutathione Sepharose)
T1 sequence (looked up): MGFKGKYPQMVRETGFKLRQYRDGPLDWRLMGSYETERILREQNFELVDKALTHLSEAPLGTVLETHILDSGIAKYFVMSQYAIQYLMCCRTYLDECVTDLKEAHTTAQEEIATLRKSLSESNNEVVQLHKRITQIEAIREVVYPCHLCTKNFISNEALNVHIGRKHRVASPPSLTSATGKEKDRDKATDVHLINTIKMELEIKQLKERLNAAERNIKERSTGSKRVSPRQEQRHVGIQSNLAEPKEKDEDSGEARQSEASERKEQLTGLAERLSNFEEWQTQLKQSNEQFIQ

GST-DZIP1-C (aa 294–737) [1] = biological target: T2, GST-DZIP1-C (aa 294–737) (Drosophila, UniProt Q9VC70 294-737)
T2 construct: Cloned into pGEX-4T-1; also called C-terminus of DZIP1; source: E. coli BL21 (DE3), purified (Glutathione Sepharose)
T2 sequence (looked up): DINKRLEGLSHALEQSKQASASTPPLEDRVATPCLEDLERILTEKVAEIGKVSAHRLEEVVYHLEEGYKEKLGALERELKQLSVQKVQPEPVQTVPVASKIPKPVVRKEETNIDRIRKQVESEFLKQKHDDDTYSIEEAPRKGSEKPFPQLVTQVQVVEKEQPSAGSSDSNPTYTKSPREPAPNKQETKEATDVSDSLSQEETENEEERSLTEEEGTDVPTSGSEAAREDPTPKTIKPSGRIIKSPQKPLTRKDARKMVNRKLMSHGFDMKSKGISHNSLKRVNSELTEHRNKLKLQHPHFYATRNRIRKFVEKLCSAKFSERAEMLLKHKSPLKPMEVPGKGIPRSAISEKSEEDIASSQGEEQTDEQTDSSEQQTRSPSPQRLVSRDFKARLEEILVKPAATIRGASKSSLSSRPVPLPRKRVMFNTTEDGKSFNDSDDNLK

GST-DZIP1-C (aa 294–737) [2] = biological target: T2, GST-DZIP1-C (aa 294–737); remark: listed apart in the source

| Binder | binding (GST-DZIP1-N (aa 1–293)) | binding (GST-DZIP1-C (aa 294–737) [1]) | binding (GST-DZIP1-C (aa 294–737) [2]) |
| --- | --- | --- | --- |
| B1 | no binding | no binding | – |
| B2 | – | – | no binding |
